PMC10474030
These are yes or no findings as the source states them, for the method shown. In cells and extracts the contact can be indirect. A result given as binding can be weak or reduced; the word gives no strength. Where a sequence is shown, tags or fusion partners need not be part of it.

Target: FLAG-tagged AMPKα
Assay: co-IP; HepG2 cells transfected with FLAG-tagged AMPKα and HA-tagged Thrap3 WT or deletion mutants; immunoprecipitated with an anti-FLAG antibody; immunoblot for FLAG and HA

B1: HA-tagged Thrap3 wild type (protein, UniProt Q9Y2W1 1-955)
chain: MSKTNKSKSGSRSSRSRSASRSRSRSFSKSRSRSRSLSRSRKRRLSSRSRSRSYSPAHNRERNHPRVYQNRDFRGHNRGYRRPYYFRGRNRGFYPWGQYNRGGYGNYRSNWQNYRQAYSPRRGRSRSRSPKRRSPSPRSRSHSRNSDKSSSDRSRRSSSSRSSSNHSRVESSKRKSAKEKKSSSKDSRPSQAAGDNQGDEAKEQTFSGGTSQDTKASESSKPWPDATYGTGSASRASAVSELSPRERSPALKSPLQSVVVRRRSPRPSPVPKPSPPLSSTSQMGSTLPSGAGYQSGTHQGQFDHGSGSLSPSKKSPVGKSPPSTGSTYGSSQKEESAASGGAAYTKRYLEEQKTENGKDKEQKQTNTDKEKIKEKGSFSDTGLGDGKMKSDSFAPKTDSEKPFRGSQSPKRYKLRDDFEKKMADFHKEEMDDQDKDKAKGRKESEFDDEPKFMSKVIGANKNQEEEKSGKWEGLVYAPPGKEKQRKTEELEEESFPERSKKEDRGKRSEGGHRGFVPEKNFRVTAYKAVQEKSSSPPPRKTSESRDKLGAKGDFPTGKSSFSITREAQVNVRMDSFDEDLARPSGLLAQERKLCRDLVHSNKKEQEFRSIFQHIQSAQSQRSPSELFAQHIVTIVHHVKEHHFGSSGMTLHERFTKYLKRGTEQEAAKNKKSPEIHRRIDISPSTFRKHGLAHDEMKSPREPGYKAEGKYKDDPVDLRLDIERRKKHKERDLKRGKSRESVDSRDSSHSRERSAEKTEKTHKGSKKQKKHRRARDRSRSSSSSSQSSHSYKAEEYTEETEEREESTTGFDKSRLGTKDFVGPSERGGGRARGTFQFRARGRGWGRGNYSGNNNNNSNNDFQKRNREEEWDPEYTPKSKKYYLHDDREGEGSDKWVSRGRGRGAFPRGRGRFMFRKSSTSPKWAHDKFSGEEGEIEDDESGTENREEKDNIQPTTE
With B1 the binding was “binds”.
